This passage reports binding results from publication PMC3979746.

By UniProt entry, the sequences of proteins in these tests, tags left out. Where a name states a change or a piece, a line headed by the entry shows the natural chain unless it says otherwise. Chains listed by the source or under a name are the forms on record and can include a tag or linker.
UniProt Q8IZP1: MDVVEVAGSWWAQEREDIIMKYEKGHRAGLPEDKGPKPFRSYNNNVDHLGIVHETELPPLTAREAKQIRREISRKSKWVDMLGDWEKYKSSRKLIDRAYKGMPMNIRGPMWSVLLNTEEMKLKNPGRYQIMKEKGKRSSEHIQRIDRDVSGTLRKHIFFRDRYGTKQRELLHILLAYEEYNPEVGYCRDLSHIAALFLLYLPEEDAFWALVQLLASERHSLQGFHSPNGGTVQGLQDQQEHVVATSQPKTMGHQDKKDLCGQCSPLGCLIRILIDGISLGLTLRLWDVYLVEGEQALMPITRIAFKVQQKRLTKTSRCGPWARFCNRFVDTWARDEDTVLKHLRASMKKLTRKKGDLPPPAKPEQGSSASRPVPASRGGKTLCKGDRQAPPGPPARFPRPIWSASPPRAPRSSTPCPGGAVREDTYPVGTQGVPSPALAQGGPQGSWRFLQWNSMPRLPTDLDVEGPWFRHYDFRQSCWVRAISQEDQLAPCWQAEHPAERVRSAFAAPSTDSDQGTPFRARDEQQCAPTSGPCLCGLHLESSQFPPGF
HA-TBC1D3(Δ286-319) (Q8IZP1, form named): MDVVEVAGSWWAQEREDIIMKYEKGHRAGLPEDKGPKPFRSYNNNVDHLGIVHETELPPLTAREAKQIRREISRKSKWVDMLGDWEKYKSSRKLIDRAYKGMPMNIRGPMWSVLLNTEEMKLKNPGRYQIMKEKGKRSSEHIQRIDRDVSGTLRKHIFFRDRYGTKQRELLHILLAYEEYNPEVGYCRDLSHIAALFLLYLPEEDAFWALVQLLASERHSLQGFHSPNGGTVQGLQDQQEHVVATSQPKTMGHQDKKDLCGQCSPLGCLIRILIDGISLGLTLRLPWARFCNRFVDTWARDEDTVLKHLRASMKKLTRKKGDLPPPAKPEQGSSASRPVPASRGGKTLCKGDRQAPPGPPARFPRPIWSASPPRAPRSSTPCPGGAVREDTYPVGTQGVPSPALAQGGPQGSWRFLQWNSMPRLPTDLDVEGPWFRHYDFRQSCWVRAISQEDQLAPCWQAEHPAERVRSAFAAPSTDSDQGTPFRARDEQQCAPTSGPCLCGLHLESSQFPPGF
HA-TBC1D3(Δ320-353) (Q8IZP1, form named): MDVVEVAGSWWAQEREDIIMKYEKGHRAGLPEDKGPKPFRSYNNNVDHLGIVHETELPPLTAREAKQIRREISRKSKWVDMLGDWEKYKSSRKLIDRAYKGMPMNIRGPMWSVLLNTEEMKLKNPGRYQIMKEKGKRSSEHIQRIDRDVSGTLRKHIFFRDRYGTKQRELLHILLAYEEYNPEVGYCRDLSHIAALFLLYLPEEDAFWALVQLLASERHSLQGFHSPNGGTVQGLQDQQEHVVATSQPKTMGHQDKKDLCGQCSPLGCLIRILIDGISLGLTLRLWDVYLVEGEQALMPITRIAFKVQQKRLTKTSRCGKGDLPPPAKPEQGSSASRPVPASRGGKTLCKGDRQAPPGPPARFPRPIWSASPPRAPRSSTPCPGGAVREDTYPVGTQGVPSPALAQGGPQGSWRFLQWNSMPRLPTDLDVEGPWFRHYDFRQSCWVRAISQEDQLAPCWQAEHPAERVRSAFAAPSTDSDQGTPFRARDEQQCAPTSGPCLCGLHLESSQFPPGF

No constants are given. Whether binding was seen depends on the method and setting. Binding seen in cells or lysates may run through a third protein. Some binding calls cover weakened binding; strength is not graded here. Where a sequence is shown, tags or fusion partners need not be part of it.

The target of the assay is T1, GST-GGA3(298) (human) (UniProt Q9NZ52).
T1 sequence: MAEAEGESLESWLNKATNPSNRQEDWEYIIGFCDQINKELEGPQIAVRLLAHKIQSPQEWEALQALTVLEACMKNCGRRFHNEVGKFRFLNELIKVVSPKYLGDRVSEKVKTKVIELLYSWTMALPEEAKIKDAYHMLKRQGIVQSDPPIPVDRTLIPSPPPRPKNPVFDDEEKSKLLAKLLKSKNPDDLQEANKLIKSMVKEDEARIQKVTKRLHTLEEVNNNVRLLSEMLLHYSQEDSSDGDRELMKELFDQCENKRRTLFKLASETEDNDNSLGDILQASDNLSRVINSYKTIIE
Kind of assay: pull-down; bacterially purified GST-GGA3(298) or GST on glutathione-Sepharose 4B beads incubated 4 h at 4°C with extracts of SMMC7721 cells transfected with HA-TBC1D3 or internal deletion mutants; anti-HA blot; only the target purified.
For “HA-tagged TBC1D3 (from UniProt Q8IZP1 1-549)”, the binding entry is “binds”. With “HA-TBC1D3(Δ286-319) (from UniProt Q8IZP1 1-549)”, the binding entry is recorded as “binds”. The value for “HA-TBC1D3(Δ320-353) (from UniProt Q8IZP1 1-549)” was “binds”.
